# Measured values reported in the supplement of paper PMC12067093, “Discovery and optimisation of a covalent ligand for TRIM25 and its application to targeted protein ubiquitination” (Chemical Science, 2025).
# Chains of the proteins cited; added tags and fusions are not shown. Lines headed by an entry give the natural chain unless they say otherwise; changes in a name come on top.
# UniProt Q7Z569: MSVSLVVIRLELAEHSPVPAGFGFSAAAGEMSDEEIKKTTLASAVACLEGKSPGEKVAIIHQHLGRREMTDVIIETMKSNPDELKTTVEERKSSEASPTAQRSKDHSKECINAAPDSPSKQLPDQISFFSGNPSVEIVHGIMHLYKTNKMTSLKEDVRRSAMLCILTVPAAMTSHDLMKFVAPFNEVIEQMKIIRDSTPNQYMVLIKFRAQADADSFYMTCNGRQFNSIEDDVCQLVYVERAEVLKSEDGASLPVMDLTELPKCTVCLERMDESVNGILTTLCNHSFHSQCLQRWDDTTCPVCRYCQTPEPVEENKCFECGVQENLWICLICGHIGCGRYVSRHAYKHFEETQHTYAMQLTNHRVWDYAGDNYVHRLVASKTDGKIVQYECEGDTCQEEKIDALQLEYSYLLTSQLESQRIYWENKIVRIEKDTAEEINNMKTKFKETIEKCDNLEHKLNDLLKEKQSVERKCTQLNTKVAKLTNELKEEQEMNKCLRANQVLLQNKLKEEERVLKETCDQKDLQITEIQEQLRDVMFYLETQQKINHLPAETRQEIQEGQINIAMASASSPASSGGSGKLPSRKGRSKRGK
# UniProt Q9HCU9: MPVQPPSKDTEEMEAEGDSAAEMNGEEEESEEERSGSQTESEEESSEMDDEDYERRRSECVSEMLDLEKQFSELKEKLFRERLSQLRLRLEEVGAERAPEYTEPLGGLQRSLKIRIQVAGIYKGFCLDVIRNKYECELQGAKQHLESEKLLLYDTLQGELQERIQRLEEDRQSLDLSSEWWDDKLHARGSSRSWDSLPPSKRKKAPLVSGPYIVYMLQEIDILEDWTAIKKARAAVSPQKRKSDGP
# UniProt P27708: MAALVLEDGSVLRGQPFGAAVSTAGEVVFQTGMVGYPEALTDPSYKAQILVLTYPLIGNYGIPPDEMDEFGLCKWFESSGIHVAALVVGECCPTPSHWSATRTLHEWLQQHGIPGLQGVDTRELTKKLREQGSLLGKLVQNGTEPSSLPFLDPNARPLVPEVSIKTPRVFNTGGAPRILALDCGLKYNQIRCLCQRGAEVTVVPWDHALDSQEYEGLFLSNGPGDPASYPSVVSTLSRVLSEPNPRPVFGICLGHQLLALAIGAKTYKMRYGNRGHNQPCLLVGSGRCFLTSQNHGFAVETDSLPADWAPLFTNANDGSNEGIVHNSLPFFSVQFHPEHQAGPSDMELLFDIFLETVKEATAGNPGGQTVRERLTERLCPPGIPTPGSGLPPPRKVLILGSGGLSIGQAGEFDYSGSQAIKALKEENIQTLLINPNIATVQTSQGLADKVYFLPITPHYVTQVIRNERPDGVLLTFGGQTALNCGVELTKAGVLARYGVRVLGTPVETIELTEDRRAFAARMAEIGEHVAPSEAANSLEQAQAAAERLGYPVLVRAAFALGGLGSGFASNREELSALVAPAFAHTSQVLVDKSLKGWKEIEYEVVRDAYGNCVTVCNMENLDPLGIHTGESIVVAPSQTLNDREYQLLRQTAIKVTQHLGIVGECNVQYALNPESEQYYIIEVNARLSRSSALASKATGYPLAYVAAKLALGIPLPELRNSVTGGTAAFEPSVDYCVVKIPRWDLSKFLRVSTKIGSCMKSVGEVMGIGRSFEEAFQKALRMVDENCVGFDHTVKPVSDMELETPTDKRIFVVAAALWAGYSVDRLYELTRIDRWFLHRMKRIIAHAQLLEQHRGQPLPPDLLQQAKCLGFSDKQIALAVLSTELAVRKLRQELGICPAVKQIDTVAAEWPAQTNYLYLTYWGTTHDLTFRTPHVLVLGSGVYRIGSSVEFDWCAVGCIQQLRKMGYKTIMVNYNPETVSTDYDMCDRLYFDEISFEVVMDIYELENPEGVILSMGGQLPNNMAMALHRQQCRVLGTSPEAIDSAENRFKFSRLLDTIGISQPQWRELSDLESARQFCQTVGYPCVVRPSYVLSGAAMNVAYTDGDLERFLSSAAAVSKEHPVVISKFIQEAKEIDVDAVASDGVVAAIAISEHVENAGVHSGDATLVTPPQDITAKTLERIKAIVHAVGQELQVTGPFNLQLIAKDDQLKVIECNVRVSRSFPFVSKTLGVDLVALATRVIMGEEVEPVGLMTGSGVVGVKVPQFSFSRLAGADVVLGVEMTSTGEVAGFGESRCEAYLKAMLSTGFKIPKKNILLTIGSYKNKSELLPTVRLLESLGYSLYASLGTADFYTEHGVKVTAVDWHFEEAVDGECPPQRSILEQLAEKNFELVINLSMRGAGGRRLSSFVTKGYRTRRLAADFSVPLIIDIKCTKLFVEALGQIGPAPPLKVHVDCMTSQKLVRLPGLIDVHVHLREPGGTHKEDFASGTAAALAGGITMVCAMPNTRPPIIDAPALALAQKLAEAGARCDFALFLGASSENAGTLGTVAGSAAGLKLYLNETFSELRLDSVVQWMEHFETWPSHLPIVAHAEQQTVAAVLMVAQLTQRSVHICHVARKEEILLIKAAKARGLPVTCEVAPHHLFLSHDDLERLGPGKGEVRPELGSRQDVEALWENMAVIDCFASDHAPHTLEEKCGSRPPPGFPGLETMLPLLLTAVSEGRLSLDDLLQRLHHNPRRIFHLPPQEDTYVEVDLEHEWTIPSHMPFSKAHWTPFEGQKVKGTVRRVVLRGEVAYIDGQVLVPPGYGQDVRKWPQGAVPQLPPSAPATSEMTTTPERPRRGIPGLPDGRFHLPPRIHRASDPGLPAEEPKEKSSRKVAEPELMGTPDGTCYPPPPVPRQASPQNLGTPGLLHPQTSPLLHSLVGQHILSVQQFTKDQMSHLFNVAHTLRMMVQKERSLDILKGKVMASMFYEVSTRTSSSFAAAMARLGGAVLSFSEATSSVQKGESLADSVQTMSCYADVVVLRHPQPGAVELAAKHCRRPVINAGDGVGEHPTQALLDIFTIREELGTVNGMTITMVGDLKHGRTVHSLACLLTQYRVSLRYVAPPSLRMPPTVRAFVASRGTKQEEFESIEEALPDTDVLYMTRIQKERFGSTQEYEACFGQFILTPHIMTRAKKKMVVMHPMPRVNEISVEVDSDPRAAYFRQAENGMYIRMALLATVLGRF
# UniProt Q86YS7: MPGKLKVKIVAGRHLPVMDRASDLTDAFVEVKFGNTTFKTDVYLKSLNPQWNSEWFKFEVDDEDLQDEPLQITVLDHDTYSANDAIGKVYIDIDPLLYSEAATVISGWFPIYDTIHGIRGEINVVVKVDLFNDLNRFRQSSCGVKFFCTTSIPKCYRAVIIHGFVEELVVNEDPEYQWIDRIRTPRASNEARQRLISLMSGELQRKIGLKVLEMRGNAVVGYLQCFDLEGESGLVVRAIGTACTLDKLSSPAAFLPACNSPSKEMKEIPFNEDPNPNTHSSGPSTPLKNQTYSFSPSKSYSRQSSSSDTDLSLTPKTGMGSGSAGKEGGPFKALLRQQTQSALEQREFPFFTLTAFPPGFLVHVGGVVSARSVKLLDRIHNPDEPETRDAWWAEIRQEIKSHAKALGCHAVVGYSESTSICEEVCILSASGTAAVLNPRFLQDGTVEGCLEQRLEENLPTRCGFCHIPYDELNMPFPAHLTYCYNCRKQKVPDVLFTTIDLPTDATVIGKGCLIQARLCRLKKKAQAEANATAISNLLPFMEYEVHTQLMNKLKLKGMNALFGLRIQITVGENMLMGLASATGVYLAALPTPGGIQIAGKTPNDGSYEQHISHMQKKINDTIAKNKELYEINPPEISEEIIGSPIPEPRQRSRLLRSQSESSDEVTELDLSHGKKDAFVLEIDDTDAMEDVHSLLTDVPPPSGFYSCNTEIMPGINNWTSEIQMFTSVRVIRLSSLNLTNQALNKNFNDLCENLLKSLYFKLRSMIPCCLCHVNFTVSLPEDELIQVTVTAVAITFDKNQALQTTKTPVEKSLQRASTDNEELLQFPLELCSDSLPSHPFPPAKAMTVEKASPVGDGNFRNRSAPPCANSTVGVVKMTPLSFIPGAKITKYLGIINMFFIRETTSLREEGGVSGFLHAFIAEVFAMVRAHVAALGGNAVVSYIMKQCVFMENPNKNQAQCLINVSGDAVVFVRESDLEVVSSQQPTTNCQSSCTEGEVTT
# UniProt Q6P1X6: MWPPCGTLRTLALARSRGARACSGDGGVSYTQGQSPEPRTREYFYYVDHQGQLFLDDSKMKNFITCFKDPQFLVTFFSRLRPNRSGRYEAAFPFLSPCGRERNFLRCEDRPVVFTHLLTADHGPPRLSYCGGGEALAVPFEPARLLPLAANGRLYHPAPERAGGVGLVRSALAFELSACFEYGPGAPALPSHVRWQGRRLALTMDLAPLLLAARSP
# UniProt O00478: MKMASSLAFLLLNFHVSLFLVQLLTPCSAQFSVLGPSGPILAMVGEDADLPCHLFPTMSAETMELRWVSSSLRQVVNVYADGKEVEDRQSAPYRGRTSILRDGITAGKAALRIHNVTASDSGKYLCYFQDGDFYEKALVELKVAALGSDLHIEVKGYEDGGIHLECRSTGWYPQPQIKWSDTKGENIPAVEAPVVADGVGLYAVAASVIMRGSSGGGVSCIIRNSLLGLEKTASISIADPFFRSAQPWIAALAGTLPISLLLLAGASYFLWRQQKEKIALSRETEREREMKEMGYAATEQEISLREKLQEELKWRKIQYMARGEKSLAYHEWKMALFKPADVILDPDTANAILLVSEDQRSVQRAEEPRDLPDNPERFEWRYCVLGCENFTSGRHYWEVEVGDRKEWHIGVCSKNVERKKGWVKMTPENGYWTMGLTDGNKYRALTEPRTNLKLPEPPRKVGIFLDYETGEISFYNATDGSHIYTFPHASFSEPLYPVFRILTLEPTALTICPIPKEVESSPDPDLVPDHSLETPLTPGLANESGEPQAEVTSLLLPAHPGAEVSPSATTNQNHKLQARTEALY
# UniProt Q8N3J3: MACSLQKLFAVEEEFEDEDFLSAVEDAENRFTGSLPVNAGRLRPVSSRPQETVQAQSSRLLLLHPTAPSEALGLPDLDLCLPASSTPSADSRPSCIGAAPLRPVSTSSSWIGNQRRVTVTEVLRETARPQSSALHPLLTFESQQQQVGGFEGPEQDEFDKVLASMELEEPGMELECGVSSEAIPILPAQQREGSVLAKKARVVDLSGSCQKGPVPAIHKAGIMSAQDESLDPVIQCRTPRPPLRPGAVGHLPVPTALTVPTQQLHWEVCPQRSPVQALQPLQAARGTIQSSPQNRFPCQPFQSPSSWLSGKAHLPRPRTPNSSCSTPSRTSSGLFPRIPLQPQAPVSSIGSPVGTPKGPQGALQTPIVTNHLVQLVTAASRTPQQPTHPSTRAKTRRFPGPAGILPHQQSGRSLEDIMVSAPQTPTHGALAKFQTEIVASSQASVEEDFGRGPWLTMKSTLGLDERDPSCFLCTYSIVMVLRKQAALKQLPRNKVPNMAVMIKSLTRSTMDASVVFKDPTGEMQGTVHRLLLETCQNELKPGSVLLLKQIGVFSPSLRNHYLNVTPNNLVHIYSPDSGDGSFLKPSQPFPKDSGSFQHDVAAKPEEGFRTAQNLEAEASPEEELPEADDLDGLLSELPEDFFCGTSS
# The other results are listed elsewhere or left out.
# Compound: CC1Cc2ccccc2N1C(=O)C1CCCN(C1)C(=O)CCl (mixture of isomers) [TRIM25 ligand 11 (diastereomer mixture)]
# Test: probe-labelled cysteine peptide fold change vs DMSO (competition) (log2 fold change); higher = less target engagement (more negative = stronger competition)
# Details: THP-1, incubation time: 4 h
# 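Also: competitive chemoproteomic profiling in live THP-1 cells with an iodoacetamide desthiobiotin (IA-DTB) probe, comparing probe-labelled peptide intensities in compound-treated cells against DMSO-treated controls.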
Target,probe-labelled cysteine peptide fold change (10 µM),probe-labelled cysteine peptide fold change (50 µM)
C16orf62_Q7Z3J2_454_ECDESGFPK (UniProt Q7Z3J2),-0.178,-0.0456
BRIP1_Q9BX63_283_DHTCVHPEVVGNFNR (UniProt Q9BX63),0.128,0.0739
BRCA1_P38398_1251_HSTVATECLSK (UniProt P38398),0.0446,-0.0577
BZW2_Q9Y6E2_97_MTNHCVFSANEDHETIR (UniProt Q9Y6E2),0.0541,-0.0628
BTAF1_O14981_862_VHTFAACAVVSLQQLPEK (UniProt O14981),0.084,0.0713
BRF1_Q92994_106_HIHHLGNQLQLNQHCLDTAFNFFK (UniProt Q92994),0.0361,0.0853
BRWD3_Q6RI45_1147_DEECER (UniProt Q6RI45),0.0184,0.127
CACYBP_Q9HB71_154_VKTDTVLILCR (UniProt Q9HB71),-0.282,-0.221
BRAP_Q7Z569_110_ECINAAPDSPSK (UniProt Q7Z569),-0.16,-0.0832
BRMS1_Q9HCU9_136_NKYECELQGAK (UniProt Q9HCU9),-0.141,-0.0151
BTK_Q06187_502_FQTQQLLEMCK (UniProt Q06187),-0.00548,0.191
BRD1_O95696_294_TDDDRWGHVVCALWIPEVGFANTVFIEPIDGVR (UniProt O95696),-0.39,-0.178
CAMK2B_Q13554_561_ICDPGLTSFEPEALGNLVEGMDFHR (UniProt Q13554),-0.106,-0.149
CAD_P27708_1215_VIECNVR (UniProt P27708),0.0725,0.211
C16orf62_Q7Z3J2_321_LTCMIR (UniProt Q7Z3J2),-0.0976,-0.0998
C2CD5_Q86YS7_449_FLQDGTVEGCLEQR (UniProt Q86YS7),0.1,-0.145
C16orf62_Q7Z3J2_214_IVIQCSK (UniProt Q7Z3J2),-0.0428,0.1
CAD_P27708_1374_VTAVDWHFEEAVDGECPPQR (UniProt P27708),0.00695,-0.0687
C11orf54_Q9H0W9_226_SHIMPAEFSSCPLNSDEEVNK (UniProt Q9H0W9),0.0685,-0.13
BUB1_O43683_407_DAGCVNK (UniProt O43683),-0.0684,0.012
CALR_P27797_137_LFPNSLDQTDMHGDSEYNIMFGPDICGPGTKK (UniProt P27797),-0.241,-0.321
BYSL_Q13895_381_ELPVLWHQCLLTLVQR (UniProt Q13895),0.0997,0.0773

Target,probe-labelled cysteine peptide fold change (10 µM),probe-labelled cysteine peptide fold change (50 µM)
C8orf82_Q6P1X6_66_NFITCFK (UniProt Q6P1X6),0.0466,0.291
CAD_P27708_1529_CDFALFLGASSENAGTLGTVAGSAAGLK (UniProt P27708),0.0356,-0.128
C8orf82_Q6P1X6_98_YEAAFPFLSPCGR (UniProt Q6P1X6),-0.0198,0.0172
BTN3A3_O00478_166_GYEDGGIHLECR (UniProt O00478),0.0138,0.127
C3orf38_Q5JPI3-2_12_SGLSFSEMEGCR (UniProt Q5JPI3),-0.00138,0.302
BRD8_Q9H0E9-2_941_CAIEADMK (UniProt Q9H0E9),-0.0493,-0.162
C20orf27_Q9GZN8_131_EGVLKEEILLACEGGTGTCVR (UniProt Q9GZN8),-0.145,0.0943
CABIN1_Q9Y6J0_1197_CEGDGDEEEWLIHYMLGK (UniProt Q9Y6J0),-0.0356,-0.143
CAMSAP1_Q5T5Y3_1507_CDANHYIILFR (UniProt Q5T5Y3),-0.195,0.0522
C17orf75_Q9HAS0_182_NNMNCEAR (UniProt Q9HAS0),-0.0675,-0.169
CABIN1_Q9Y6J0_717_AVVHLLRPTLCTSGFDR (UniProt Q9Y6J0),-0.047,-0.0291
C6orf106_Q9H6K1_147_SLEPQEIADVSVQMCSPSR (UniProt Q9H6K1),0.0311,0.236
BRMS1_Q9HCU9_60_SECVSEMLDLEK (UniProt Q9HCU9),0.0403,-0.00198
CAND1_Q86VP6_571_DLFTCTIKR (UniProt Q86VP6),-0.101,-0.178
CAMK2D_Q13557_428_SNKPIHTIILNPHVHLVGDDAACIAYIR (UniProt Q13557),-0.104,-0.0114
BRAP_Q7Z569_264_CTVCLER (UniProt Q7Z569),0.175,0.13
C17orf53_Q8N3J3_209_VVDLSGSCQK (UniProt Q8N3J3),-0.0206,0.0542
BTN3A3_O00478_512_ILTLEPTALTICPIPK (UniProt O00478),0.101,0.188
C5orf51_A6NDU8_268_KYVSVCEGPLK (UniProt A6NDU8),-0.0144,0.177
CAMK2G_Q13555_7_ATTATCTR (UniProt Q13555),0.042,-0.225
CAMK2D_Q13557_127_EYYSEADASHCIQQILESVNHCHLNGIVHR (UniProt Q13557),0.0777,-0.0821

# Complete entries, quoted from the list. Values in the order: probe-labelled cysteine peptide fold change (10 µM)	probe-labelled cysteine peptide fold change (50 µM)
# C17orf53_Q8N3J3_209_VVDLSGSCQK (UniProt Q8N3J3) in the list: -0.0206	0.0542
# BRD1_O95696_294_TDDDRWGHVVCALWIPEVGFANTVFIEPIDGVR (UniProt O95696) in the list: -0.39	-0.178
# BRAP_Q7Z569_110_ECINAAPDSPSK (UniProt Q7Z569) in the list: -0.16	-0.0832
# BRWD3_Q6RI45_1147_DEECER (UniProt Q6RI45) in the list: 0.0184	0.127
